Results are given in words; binding and its absence hold for the method and conditions named. Values belong to the substance of their own block, whether it stands above or below them.
Experiments:
Experiment in all cases: SEC; analytical gel filtration, Superdex 75 10/300, 25 mM Tris-HCl pH 7.6, 150 mM NaCl, 1 mM DTT, constant flow-rate, 4°C; self-association (monomer or dimer); both purified
[1] = molecular target: SUMO2-Ubl G27V (UniProt P61956)
[2] = molecular target: SUMO2-Ubl (UniProt P61956)
[3] = molecular target: SUMO2-Ubl G24A G27V (UniProt P61956)

By UniProt entry, the sequences of proteins in these tests, tags left out. Where a name states a change or a piece, a line headed by the entry shows the natural chain unless it says otherwise. Chains listed by the source or under a name are the forms on record and can include a tag or linker.
SUMO2-Ubl G27V (P61956, form named): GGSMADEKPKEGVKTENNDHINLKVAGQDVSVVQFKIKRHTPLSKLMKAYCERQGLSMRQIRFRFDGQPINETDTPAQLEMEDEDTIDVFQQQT
SUMO2-Ubl (P61956, form named): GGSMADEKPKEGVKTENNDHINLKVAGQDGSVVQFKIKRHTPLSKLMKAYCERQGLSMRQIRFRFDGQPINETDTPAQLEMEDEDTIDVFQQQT
SUMO2-Ubl G24A G27V (P61956, form named): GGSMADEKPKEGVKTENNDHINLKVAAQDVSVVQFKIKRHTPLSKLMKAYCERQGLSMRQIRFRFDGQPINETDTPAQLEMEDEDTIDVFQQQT

- binding [1]: no binding
Substance: SUMO2-Ubl G27V (from UniProt P61956 1-91) (domain or fragment)

- binding [2]: no binding
Substance: SUMO2-Ubl (from UniProt P61956 1-91) (domain or fragment)

- binding [3]: no binding
Substance: SUMO2-Ubl G24A G27V (from UniProt P61956 1-91) (domain or fragment)
